Measurements from patent publication US20250361230A1, “LATS Inhibitors and Uses Thereof” (The USA, as Represented by the Secretary, Dept. of Heath …, priority 2022, published 2025).
Structures were worked out from names or drawings and are uncertain.

The chains behind the UniProt entries cited, without tags or fusion partners.
UniProt Q9NRM7, whole entry: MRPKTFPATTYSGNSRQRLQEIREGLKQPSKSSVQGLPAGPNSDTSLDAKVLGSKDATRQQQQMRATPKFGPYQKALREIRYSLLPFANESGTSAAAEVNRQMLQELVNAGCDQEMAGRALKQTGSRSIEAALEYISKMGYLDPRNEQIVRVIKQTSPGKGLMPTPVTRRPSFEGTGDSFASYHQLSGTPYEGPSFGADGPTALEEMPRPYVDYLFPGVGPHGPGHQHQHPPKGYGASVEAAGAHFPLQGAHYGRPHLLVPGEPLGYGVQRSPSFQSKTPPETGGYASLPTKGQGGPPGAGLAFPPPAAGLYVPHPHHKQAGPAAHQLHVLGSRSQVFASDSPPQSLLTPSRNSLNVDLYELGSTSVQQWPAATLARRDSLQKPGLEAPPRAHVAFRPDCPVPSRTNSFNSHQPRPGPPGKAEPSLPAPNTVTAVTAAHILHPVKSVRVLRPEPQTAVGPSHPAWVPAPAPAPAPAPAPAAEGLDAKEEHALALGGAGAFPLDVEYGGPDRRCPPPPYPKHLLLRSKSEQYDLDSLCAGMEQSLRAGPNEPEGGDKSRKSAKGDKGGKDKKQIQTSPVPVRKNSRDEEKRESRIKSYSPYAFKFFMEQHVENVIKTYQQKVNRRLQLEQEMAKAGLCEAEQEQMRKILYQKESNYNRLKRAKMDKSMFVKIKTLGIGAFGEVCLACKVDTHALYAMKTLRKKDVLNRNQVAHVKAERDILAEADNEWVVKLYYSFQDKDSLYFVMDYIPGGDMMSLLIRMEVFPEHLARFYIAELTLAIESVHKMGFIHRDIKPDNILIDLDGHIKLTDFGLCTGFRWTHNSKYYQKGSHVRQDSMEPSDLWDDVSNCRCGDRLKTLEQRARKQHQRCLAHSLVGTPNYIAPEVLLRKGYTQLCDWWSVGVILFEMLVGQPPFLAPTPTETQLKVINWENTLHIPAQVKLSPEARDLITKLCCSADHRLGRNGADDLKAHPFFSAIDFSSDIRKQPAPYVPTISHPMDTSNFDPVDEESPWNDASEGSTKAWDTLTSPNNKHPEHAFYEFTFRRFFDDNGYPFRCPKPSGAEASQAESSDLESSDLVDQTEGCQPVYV
UniProt O95835, whole entry: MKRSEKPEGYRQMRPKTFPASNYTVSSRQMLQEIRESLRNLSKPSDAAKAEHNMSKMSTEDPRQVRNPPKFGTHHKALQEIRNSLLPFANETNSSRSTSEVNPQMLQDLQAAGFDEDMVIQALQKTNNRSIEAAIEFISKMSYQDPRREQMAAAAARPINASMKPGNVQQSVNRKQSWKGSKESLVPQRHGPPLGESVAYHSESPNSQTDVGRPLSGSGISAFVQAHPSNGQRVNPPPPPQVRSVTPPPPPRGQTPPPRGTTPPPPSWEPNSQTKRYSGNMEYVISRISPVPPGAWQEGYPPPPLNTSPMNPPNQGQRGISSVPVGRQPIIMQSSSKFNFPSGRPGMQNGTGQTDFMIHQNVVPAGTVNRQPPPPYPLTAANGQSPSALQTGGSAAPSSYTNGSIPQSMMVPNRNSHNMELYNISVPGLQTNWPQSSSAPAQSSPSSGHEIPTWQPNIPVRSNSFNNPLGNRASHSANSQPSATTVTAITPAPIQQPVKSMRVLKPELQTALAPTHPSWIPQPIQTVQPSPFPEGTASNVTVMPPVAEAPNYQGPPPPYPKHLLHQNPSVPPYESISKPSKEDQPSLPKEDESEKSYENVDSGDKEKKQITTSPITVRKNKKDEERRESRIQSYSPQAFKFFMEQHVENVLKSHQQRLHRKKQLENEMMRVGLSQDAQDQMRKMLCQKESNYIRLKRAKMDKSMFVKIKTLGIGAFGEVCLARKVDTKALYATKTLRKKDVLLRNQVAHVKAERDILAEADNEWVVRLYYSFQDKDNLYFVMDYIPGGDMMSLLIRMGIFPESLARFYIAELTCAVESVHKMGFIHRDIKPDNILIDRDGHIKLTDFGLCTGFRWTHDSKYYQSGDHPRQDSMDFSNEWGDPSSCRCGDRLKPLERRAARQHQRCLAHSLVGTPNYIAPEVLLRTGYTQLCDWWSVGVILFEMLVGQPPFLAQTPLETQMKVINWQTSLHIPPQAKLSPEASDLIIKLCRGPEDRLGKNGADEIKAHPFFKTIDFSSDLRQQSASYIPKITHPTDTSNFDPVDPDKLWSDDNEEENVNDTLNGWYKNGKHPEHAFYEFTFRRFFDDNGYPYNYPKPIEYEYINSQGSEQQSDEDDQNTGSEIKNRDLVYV
UniProt P31749, whole entry: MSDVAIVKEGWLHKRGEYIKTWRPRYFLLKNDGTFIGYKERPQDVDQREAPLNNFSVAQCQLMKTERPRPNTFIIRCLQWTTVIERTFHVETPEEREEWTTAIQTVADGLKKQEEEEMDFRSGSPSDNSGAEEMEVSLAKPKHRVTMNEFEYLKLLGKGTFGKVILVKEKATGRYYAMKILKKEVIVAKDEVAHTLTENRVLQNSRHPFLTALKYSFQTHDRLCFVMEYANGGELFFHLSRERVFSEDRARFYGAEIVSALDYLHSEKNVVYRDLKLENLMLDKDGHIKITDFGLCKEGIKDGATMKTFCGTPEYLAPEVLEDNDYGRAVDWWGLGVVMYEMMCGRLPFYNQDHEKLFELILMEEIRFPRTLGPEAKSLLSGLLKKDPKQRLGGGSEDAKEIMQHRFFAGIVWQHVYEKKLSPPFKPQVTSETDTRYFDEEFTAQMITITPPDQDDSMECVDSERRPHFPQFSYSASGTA

Columns and labels:
LATS2 = LATS2 (Homo sapiens, UniProt Q9NRM7); assay: RBC HotSpot kinase assay (33P-ATP, P81 filter-binding), LATS2; settings: read-out: LATS2 IC50; Table 32, biochemical kinase assay
LATS1 = LATS1 (Homo sapiens, UniProt O95835); assay: RBC HotSpot kinase assay (33P-ATP, P81 filter-binding), LATS1; settings: read-out: LATS1 IC50; Table 32, biochemical kinase assay
AKT = AKT (Homo sapiens, UniProt P31749); assay: RBC HotSpot kinase assay (33P-ATP, P81 filter-binding), AKT; settings: read-out: AKT IC50; Table 32, biochemical kinase assay

Compound: NCC(O)(c1ccccc1)c1ccc(-c2ccnc3[nH]ccc23)cc1 (stereo not drawn)
- IC50 (LATS2): 8.6 nM
- IC50 (LATS1): 6.5 nM
- IC50 (AKT): 8 nM
